Results on 1 compound are retold here after PubChem BioAssay AID2315 (National Center for Advancing Translational Sciences (NCATS), 2010).

Each structure is given as a SMILES string. Only a part is listed here, and it is no random draw. The source made the active and inactive calls. Rule as the data show it: active = inhibition mostly above about 28% (no sharp cut-off); inactive = mostly below about 43%.

The nature of this assay: A qHTS for Small Molecule Inhibitors of Shiga Toxin. Also: 0% is about no effect. Particulars: Vero cells, Shiga toxin protein synthesis inhibition reporter; at 38.7 µM; active compounds read high. For orientation: qHTS replaces the single test concentration by a dilution series.
`COc1ccc(/C(N)=N/OC(=O)CSc2ccccc2)cc1`: the inhibition (as a rule, the relative decrease from the control value, in per cent) was active: 70.9%.
